Measurements as given in PubChem BioAssay AID1741 (Vanderbilt High Throughput Screening Facility, 2009).
In all, about 1,700 compounds went through this assay and about 150 (8.8%) were called active. The shares of active, inactive and inconclusive entries below differ from those in the screen.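 Rule for the calls: active = fluorescence change differing from the plate's solvent-only control wells at 99.7% confidence in both duplicates, whether higher or lower; inconclusive = differs from solvent controls in only one of two duplicates; inactive = the rest.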

Chains of the proteins cited; added tags and fusions are not shown.
UniProt P08485, whole entry, looked up: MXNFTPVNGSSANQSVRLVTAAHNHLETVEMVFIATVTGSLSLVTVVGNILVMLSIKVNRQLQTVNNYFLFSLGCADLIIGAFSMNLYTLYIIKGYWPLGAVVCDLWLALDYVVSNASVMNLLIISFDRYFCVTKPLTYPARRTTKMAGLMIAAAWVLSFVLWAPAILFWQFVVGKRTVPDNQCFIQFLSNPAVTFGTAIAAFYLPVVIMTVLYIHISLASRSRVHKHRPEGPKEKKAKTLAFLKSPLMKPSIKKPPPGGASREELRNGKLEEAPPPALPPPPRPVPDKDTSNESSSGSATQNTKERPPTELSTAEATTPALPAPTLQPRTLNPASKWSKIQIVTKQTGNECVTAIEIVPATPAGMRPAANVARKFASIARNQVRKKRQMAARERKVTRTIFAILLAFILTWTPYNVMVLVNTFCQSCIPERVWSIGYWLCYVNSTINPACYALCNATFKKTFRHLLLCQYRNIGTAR

biological target: Muscarinic acetylcholine receptor M4 (Rattus norvegicus) (UniProt P08485); assay: rat M4 muscarinic receptor activation – cell-based, agonist mode, counter-screen for M1 allosteric modulator project, confirmation (AID 1741); settings: CHO M4/Gqi5 cells, Fluo-4 calcium fluorescence, at 10 µM, actives lie on both sides

**Q.** For `O=C1CN(C(=O)c2ccc(Br)o2)C(c2ccc(F)cc2)c2cc(Cl)ccc2N1` (stereo not drawn), which fluorescence change (max-min) is on record?
**A.** inconclusive: -69

**Q.** `O=[n+]1c2c(n([O-])c3cc(F)c(N4CCCC4)cc31)CCCC2` was tested. Which fluorescence change (max-min) did it give?
**A.** active: 561

**Q.** For `COc1cccc(C(=O)OCc2ccccc2C#N)c1O`, which fluorescence change (max-min) is on record?
**A.** active: -79.3

**Q.** For `CCN(CC)c1ccc2cc(C(=O)O)c(=O)oc2c1`, which fluorescence change (max-min) is on record?
**A.** inactive: 137

**Q.** Which fluorescence change (max-min) does the source give for `COc1ccc(OC)c(Nc2cc(C(=O)NCCCN3CCOCC3)c3ccccc3n2)c1` here?
**A.** active: -78.6

**Q.** `Cc1cc(C(=O)CSc2nc3ccccc3c(=O)n2C)c(C)n1Cc1ccc2c(c1)OCO2` was tested. Which fluorescence change (max-min) did it give?
**A.** inactive: -1.15

**Q.** How did the fluorescence change (max-min) turn out when `CC(=O)c1cccc(NC(=O)C2CCCN(S(=O)(=O)c3cccc4cccnc34)C2)c1` (stereo not drawn) was run?
**A.** inconclusive: -56.5

**Q.** Which fluorescence change (max-min) does the source give for `CCCCNC(=O)CC1Nc2ccccc2NC1=O` (stereo not drawn) here?
**A.** inconclusive: -58.2

**Q.** With `COc1cc(C2CC(=O)Nc3ccccc3S2)cc(OC)c1OC` (stereo not drawn) as the compound, how does the fluorescence change (max-min) read?
**A.** inconclusive: -53

**Q.** Which fluorescence change (max-min) does the source give for `CCOc1ccccc1NC(=O)CC1Nc2cc(C)c(C)cc2NC1=O` (stereo not drawn) here?
**A.** inactive: -40.9

**Q.** `CCCCN(CCCC)c1nc2ccccc2nc1C(C#N)C(=O)NCCCOC` (stereo not drawn) was tested. Which fluorescence change (max-min) did it give?
**A.** active: 2700

**Q.** Which fluorescence change (max-min) does the source give for `N#CC(C(=O)NCc1ccccc1)c1nc2ccccc2nc1N1CCCC1` (stereo not drawn) here?
**A.** active: 794

**Q.** `COc1ccccc1NC(=O)CC1C(=O)NCCN1C(=O)Nc1ccc(Cl)c(Cl)c1` (stereo not drawn) was tested. Which fluorescence change (max-min) did it give?
**A.** inconclusive: -187

**Q.** How did the fluorescence change (max-min) turn out when `COc1ccc(-n2c(C)nc3c(cnn3-c3ccc(Cl)cc3)c2=O)cc1` was run?
**A.** inactive: -53.2

**Q.** How did the fluorescence change (max-min) turn out when `O=C(OCC#CCSc1nnc(-c2cccc3ccccc23)o1)c1cccs1` was run?
**A.** inactive: -29.9

**Q.** Which fluorescence change (max-min) does the source give for `CCOC(=O)N1C(=O)c2cc(OC)ccc2S1(=O)=O` here?
**A.** inconclusive: -92.3

**Q.** How did the fluorescence change (max-min) turn out when `C=CCOC(=O)C(C#N)c1nc2ccccc2nc1N1CCC(C(=O)OCC)CC1` (stereo not drawn) was run?
**A.** inconclusive: -44

**Q.** `O=C(Nc1ccccc1)N1CC=C(c2ccc(F)cc2)CC1` was tested. Which fluorescence change (max-min) did it give?
**A.** inconclusive: -53.2

**Q.** For `O=C(CCC1CCCCC1)N1CCN(Cc2ccc3c(c2)OCO3)CC1`, which fluorescence change (max-min) is on record?
**A.** inconclusive: -118

**Q.** `COc1ccc(C(C)=O)c(Oc2nc(CN3CCOCC3)nc3scc(-c4cccs4)c23)c1` was tested. Which fluorescence change (max-min) did it give?
**A.** inactive: -47

**Q.** Which fluorescence change (max-min) does the source give for `C=CCn1c2ccccc2c2nnc(SCc3ccc4nonc4c3)nc21` here?
**A.** inactive: -44.7

**Q.** Which fluorescence change (max-min) does the source give for `c1ccc(Cn2c(-c3ccco3)nc3nc4ccccc4nc32)cc1` here?
**A.** inconclusive: -134

**Q.** Which fluorescence change (max-min) does the source give for `C=CCN1C(c2ccc(OCC)cc2)=CS/C1=C(\C#N)c1nnc2n1CCCCC2` here?
**A.** inactive: -23.7

**Q.** How did the fluorescence change (max-min) turn out when `Cn1cc(C(=O)c2ccc(F)cc2)cc1-c1nc2ccccc2n1C` was run?
**A.** inconclusive: -41.5

**Q.** `COc1cc(OC)cc(C(C(=O)NCc2ccccc2)N(Cc2ccco2)C(=O)c2ccno2)c1` (stereo not drawn) was tested. Which fluorescence change (max-min) did it give?
**A.** inconclusive: -58.7

**Q.** Which fluorescence change (max-min) does the source give for `Cc1cc2c(c(=O)o1)C1(C(=O)N(CC(=O)O)c3ccccc31)C(C#N)=C(N)O2` (stereo not drawn) here?
**A.** inactive: 53.7

**Q.** `Cc1c(C(=O)N2CCc3ccccc3C2)sc2nc(-c3ccccc3)cn12` was tested. Which fluorescence change (max-min) did it give?
**A.** inconclusive: -86.1

**Q.** How did the fluorescence change (max-min) turn out when `Clc1ccc2[nH]c3c(NCC4CCCO4)ncnc3c2c1` (stereo not drawn) was run?
**A.** inactive: -28.9

**Q.** For `Cc1cccc(-c2nc(CSCC(=O)N3CCN(c4ccccn4)CC3)c(C)o2)c1`, which fluorescence change (max-min) is on record?
**A.** inconclusive: -53.7

**Q.** Which fluorescence change (max-min) does the source give for `CCOC(=O)C1CCN(c2nc3ccccc3nc2C(C#N)C(=O)OC(C)C)CC1` (stereo not drawn) here?
**A.** inactive: -32.5

**Q.** How did the fluorescence change (max-min) turn out when `CN(C)S(=O)(=O)c1cccc(C(=O)OCC(=O)Nc2sccc2C(N)=O)c1` was run?
**A.** active: -69.3

**Q.** For `O=C(O)c1ccccc1S(=O)(=O)c1ccccc1CO`, which fluorescence change (max-min) is on record?
**A.** inactive: -45.4

**Q.** `Cc1ccc(S(=O)(=O)N2CCN(C(=O)c3cc(=O)[nH]c4ccccc34)CC2)c(C)c1` was tested. Which fluorescence change (max-min) did it give?
**A.** inactive: -49.9

**Q.** `CCOc1ccc2noc3c2c1C(=O)c1ccccc1-3` was tested. Which fluorescence change (max-min) did it give?
**A.** active: 2870

**Q.** For `COc1ccc2nc(N3CCC(C)CC3)c(C#N)cc2c1`, which fluorescence change (max-min) is on record?
**A.** inconclusive: -5.63

**Q.** For `COC(=O)c1ccc(OCC2c3cc(OC)c(OC)cc3CCN2C(=O)c2ccco2)cc1` (stereo not drawn), which fluorescence change (max-min) is on record?
**A.** inconclusive: -66.7

**Q.** How did the fluorescence change (max-min) turn out when `CCNc1cccc2c1C(=O)N(C)C2=O` was run?
**A.** active: 935

**Q.** How did the fluorescence change (max-min) turn out when `O=S(=O)(Nc1nc2ccccc2nc1N1CCN(c2ccccn2)CC1)c1ccc(Cl)cc1` was run?
**A.** inconclusive: 70.2

**Q.** With `NC1=CC(=O)c2cccc3cccc1c23` as the compound, how does the fluorescence change (max-min) read?
**A.** active: 440

**Q.** With `O=C(CNc1ccc(Oc2ccccc2)cc1)N1CCOCC1` as the compound, how does the fluorescence change (max-min) read?
**A.** inconclusive: -152

**Q.** For `COc1ccc(OC)c(/C=c2\sc3nc(-c4cccs4)nn3c2=O)c1`, which fluorescence change (max-min) is on record?
**A.** active: 556

**Q.** Which fluorescence change (max-min) does the source give for `CCCCCCc1cc2cc(-c3nnc(-c4ccccc4O)o3)c(=O)oc2cc1O` here?
**A.** active: 843

**Q.** `CCC(=O)N1CCN(c2ccccc2NC(=O)COc2ccccc2Cl)CC1` was tested. Which fluorescence change (max-min) did it give?
**A.** inactive: -74.9

**Q.** How did the fluorescence change (max-min) turn out when `CC(C)OCCCn1c(=NC(=O)c2ccncc2)c(C#N)cc2c(=O)n3ccccc3nc21` was run?
**A.** inconclusive: 227

**Q.** With `CC(=O)c1c(C)[nH]c(C(=O)OCc2nnc(-c3ccccc3)o2)c1C` as the compound, how does the fluorescence change (max-min) read?
**A.** active: -69.8

**Q.** For `CCN1CCN(C(=O)c2ccc3c(=O)n(C4CCCC4)c(=S)[nH]c3c2)CC1`, which fluorescence change (max-min) is on record?
**A.** inactive: -26.6

**Q.** `COC(=O)c1ccccc1NC(=O)COC(=O)c1ccc(C)c(NC(=O)c2ccco2)c1` was tested. Which fluorescence change (max-min) did it give?
**A.** inconclusive: -78.9

**Q.** `O=C(NCC(=O)N(c1ccccc1)C(C(=O)NC1CCCCC1)c1ccncc1)c1ccco1` (stereo not drawn) was tested. Which fluorescence change (max-min) did it give?
**A.** inconclusive: -56.5

**Q.** How did the fluorescence change (max-min) turn out when `CC(=O)Nc1nc2n(n1)C(c1ccccc1)C=C(c1ccccc1)N2` (stereo not drawn) was run?
**A.** inactive: 97

**Q.** Which fluorescence change (max-min) does the source give for `Cc1cc(C)c2cc(C#N)c(SCC(=O)NCC3CCCO3)nc2c1` (stereo not drawn) here?
**A.** inconclusive: -75.3

**Q.** For `O=C(CCCn1c(=O)c2sccc2n(CC(=O)OCc2ccccc2)c1=O)NCc1ccco1`, which fluorescence change (max-min) is on record?
**A.** active: -72.1

**Q.** `Clc1ccc(C(c2nnnn2C2CCCC2)N2CCSCC2)cc1` (stereo not drawn) was tested. Which fluorescence change (max-min) did it give?
**A.** inconclusive: -80.7

**Q.** With `Cc1cc2c(N3CCCCC3C)ncnc2s1` (stereo not drawn) as the compound, how does the fluorescence change (max-min) read?
**A.** inactive: -34.2

**Q.** How did the fluorescence change (max-min) turn out when `CCc1nnc(N2CCN(c3ncnc4c3oc3ccccc34)CC2)s1` was run?
**A.** inactive: -49.5

**Q.** With `COc1cc(OC)c(-c2nnc(-c3ccc(OC)c(OC)c3OC)o2)cc1OC` as the compound, how does the fluorescence change (max-min) read?
**A.** inactive: -59.7

**Q.** For `Cc1oc2nc(SCCCC(=O)NCCCO)nc(N)c2c1C`, which fluorescence change (max-min) is on record?
**A.** inconclusive: -136

**Q.** With `c1ccc(-n2nnnc2NCCc2c[nH]c3ccccc23)cc1` as the compound, how does the fluorescence change (max-min) read?
**A.** inconclusive: -68.3

**Q.** `O=C(OCC(=O)N1CCN(C(=O)c2ccco2)CC1)c1ccccc1OCc1ccc(Cl)cc1` was tested. Which fluorescence change (max-min) did it give?
**A.** inconclusive: -40.7
